Source: publication PMC11286965
Results are given in words; binding and its absence hold for the method and conditions named. In cells and extracts the contact can be indirect. Some binding calls cover weakened binding; strength is not graded here.

Amino acid sequences for entries named in this document (tags omitted).
UniProt Q16186: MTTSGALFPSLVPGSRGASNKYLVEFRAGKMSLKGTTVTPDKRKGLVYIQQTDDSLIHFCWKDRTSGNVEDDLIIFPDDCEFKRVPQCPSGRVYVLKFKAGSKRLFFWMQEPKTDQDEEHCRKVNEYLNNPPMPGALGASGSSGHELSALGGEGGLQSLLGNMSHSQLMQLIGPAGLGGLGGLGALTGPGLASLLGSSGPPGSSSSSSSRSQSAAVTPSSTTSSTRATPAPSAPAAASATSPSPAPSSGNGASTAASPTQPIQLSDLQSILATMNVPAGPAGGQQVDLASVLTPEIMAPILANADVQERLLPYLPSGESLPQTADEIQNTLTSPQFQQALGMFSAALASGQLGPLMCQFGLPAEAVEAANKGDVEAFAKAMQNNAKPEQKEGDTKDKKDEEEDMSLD

Biological target: T1, SIAH1 (Seven in absentia homolog 1) (human) (UniProt Q8IUQ4)
T1 sequence: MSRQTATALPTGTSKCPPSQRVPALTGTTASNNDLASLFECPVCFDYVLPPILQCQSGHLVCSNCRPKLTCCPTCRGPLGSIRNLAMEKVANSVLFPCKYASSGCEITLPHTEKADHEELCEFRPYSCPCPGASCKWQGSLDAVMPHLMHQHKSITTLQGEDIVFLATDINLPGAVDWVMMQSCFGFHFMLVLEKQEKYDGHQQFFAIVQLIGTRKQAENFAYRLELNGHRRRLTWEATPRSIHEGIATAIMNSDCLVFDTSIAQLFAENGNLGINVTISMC
Assay: co-IP; HepG2 and Huh7 cells lysed in ice-cold IP buffer (1% Triton X-100, 150 mM NaCl, 20 mM HEPES, 2 mM EDTA, 5 mM MgCl2, pH 7.4); lysates incubated overnight with the indicated antibodies, bound to beads, eluted, western blot; legends: cells treated with MG132 (15 uM) for 8 h

binding: binds
Substance: ADRM1 (adhesion regulating molecule 1) (from UniProt Q16186 1-407)
